Data as given in article PMC3460628.
No constants are given. Whether binding was seen depends on the method and setting. Some binding calls cover weakened binding; strength is not graded here.

Sequences of proteins named here, by UniProt entry; tags and fusion partners are left off. Residues count along the entry.
UniProt Q07737, residues 71-278: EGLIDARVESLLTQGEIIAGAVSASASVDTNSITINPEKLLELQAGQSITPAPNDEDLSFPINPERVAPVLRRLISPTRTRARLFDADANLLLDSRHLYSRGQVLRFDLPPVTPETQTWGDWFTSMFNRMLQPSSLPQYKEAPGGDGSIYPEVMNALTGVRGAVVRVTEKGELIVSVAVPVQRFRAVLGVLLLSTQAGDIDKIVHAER

Molecular target: periplasmic domain of ChvG (71-278 a.a.) (Agrobacterium tumefaciens) (UniProt Q07737)
Test: two-hybrid; Matchmaker system (Clontech), S. cerevisiae AH109; ChvG periplasmic domain in pGBKT7, ExoR proteins fused to the activation domain in pGADT7; positive interaction read as growth on SD-WLHA medium at 30°C for at least 2 days

**Q.** How did the binding turn out when “wild-type ExoR (from UniProt A0A822UYI5 1-264)” was run?
**A.** binds
